Binding data for one substance are collected here from PMC12774752, “4E-BP1 differentially regulates translation of a subset of human mRNAs” (The Journal of Biological Chemistry, 2025).

Chains of the proteins cited; added tags and fusions are not shown. Residues count along the entry.
UniProt Q04637, residues 557-1599: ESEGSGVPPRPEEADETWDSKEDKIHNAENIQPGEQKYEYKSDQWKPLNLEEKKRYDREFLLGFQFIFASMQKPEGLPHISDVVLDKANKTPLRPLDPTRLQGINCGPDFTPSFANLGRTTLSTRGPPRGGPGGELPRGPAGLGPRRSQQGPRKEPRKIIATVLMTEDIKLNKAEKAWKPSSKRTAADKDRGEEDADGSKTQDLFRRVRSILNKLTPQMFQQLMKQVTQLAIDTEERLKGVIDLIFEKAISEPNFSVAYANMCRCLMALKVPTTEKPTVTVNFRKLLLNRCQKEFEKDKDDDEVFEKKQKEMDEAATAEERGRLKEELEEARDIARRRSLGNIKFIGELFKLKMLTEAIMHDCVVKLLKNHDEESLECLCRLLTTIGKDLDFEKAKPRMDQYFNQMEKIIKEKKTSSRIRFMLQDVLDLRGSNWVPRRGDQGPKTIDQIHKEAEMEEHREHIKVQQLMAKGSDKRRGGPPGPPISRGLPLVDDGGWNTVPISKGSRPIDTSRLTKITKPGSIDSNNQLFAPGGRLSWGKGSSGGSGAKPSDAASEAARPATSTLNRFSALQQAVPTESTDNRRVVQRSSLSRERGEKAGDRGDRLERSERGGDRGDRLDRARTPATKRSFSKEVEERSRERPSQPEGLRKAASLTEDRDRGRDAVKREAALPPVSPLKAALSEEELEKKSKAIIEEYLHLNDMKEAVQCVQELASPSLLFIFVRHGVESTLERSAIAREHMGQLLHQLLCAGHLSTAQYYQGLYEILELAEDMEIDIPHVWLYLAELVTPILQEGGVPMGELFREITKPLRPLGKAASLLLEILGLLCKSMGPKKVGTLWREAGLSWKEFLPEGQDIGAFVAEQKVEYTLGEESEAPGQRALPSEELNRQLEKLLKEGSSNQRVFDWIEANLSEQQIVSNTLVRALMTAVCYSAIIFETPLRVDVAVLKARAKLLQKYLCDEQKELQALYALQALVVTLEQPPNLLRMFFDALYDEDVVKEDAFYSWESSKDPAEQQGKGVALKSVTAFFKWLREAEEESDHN

For this assay, the target named is T1, fluorescein-labeled 4E-BP1 peptide (human).
T1 sequence (peptide, Fluorescein isothiocyanate (FITC) conjugated at the Lys residue): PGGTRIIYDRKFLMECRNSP
Nature of the assay: fluorescence polarisation; fluorescence anisotropy; 20 nM FITC-labelled 4E-BP1 peptide, free or preincubated with 10 nM eIF4E for 20 min at 25 °C, titrated with protein (eIF4E: 200 ul of 20 nM peptide with 2.5 uM eIF4E); no mRNA; Hill-equation fit; both purified. For orientation: Fluorescence polarisation rises when a labelled molecule tumbles more slowly, as on binding a larger partner.

These are yes or no findings as the source states them, for the method shown.

As to “eIF4GI_(557-1599) (from UniProt Q04637 557-1599) (domain or fragment)”, the binding result is on record as “no binding”.
